Experimental findings from paper PMC5090064, “Coordinated regulation of the ESCRT-III component CHMP4C by the chromosomal passenger complex and centralspindlin during cytokinesis” (Open Biology, 2016) are described below.

Protein sequences, listed by entry. Tags and fused reporters are not part of them.
UniProt Q96GD4: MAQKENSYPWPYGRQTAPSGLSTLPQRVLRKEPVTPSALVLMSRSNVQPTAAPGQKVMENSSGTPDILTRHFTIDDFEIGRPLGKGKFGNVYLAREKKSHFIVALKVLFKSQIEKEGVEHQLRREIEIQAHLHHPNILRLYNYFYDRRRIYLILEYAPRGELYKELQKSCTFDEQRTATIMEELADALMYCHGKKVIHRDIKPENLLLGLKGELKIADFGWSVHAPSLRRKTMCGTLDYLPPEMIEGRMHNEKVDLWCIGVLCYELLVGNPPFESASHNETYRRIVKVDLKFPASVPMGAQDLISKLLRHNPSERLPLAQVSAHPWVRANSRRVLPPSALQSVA

Results are given in words; binding and its absence hold for the method and conditions named. For some of these results: Binding seen in cells or lysates may run through a third protein. Some binding calls cover weakened binding; strength is not graded here. For some of these results: Sequences can lack the tags named with a protein.

Experiment [1] has as its target T1, GST::MKLP1 polypeptide encompassing part of the coiled coil domain and the whole tail region (aa 590–856) (UniProt Q02241).
T1 sequence: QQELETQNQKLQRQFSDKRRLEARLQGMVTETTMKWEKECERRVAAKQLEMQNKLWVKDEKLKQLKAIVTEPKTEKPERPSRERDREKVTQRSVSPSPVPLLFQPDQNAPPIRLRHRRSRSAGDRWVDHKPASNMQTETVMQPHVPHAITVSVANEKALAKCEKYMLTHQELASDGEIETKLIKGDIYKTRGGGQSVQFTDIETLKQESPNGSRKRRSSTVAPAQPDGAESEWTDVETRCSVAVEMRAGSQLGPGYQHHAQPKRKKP
The experiment in a line: pull-down; GST-tagged protein purified from E. coli on glutathione beads; in vitro translated [35S]methionine-labelled polypeptides; binding at 150 mM NaCl, washes 150 mM to 1 M NaCl; only the target purified.

Experiment [2] deals with T2, GST::MKLP1 central region containing the coiled coil domain (aa 437–619) (UniProt Q02241).
T2 sequence: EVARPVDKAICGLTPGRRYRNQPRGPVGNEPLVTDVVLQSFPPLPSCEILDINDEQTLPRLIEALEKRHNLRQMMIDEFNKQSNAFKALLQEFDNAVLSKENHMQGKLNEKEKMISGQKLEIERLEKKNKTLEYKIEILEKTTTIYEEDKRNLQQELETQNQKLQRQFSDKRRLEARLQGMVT
The experiment is described as above.

Experiment [3] addresses T3, CHMP4C (purified recombinant, full-length) (human), Q96CF2.
T3 chain: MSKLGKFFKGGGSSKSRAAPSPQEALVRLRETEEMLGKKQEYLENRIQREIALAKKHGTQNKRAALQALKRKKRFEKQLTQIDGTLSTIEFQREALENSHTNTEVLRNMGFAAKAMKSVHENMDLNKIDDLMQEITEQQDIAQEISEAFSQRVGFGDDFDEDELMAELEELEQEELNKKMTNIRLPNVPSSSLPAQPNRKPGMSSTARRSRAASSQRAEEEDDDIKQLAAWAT
The experiment is described as follows: atomic force microscopy; purified proteins on mica surfaces without lipid bilayers, imaged under fluid at room temperature; both purified. The following applies: remark: other sources report otherwise.

The target in another experiment is T4, MKLP1::GFP (UniProt Q02241).
T4 sequence: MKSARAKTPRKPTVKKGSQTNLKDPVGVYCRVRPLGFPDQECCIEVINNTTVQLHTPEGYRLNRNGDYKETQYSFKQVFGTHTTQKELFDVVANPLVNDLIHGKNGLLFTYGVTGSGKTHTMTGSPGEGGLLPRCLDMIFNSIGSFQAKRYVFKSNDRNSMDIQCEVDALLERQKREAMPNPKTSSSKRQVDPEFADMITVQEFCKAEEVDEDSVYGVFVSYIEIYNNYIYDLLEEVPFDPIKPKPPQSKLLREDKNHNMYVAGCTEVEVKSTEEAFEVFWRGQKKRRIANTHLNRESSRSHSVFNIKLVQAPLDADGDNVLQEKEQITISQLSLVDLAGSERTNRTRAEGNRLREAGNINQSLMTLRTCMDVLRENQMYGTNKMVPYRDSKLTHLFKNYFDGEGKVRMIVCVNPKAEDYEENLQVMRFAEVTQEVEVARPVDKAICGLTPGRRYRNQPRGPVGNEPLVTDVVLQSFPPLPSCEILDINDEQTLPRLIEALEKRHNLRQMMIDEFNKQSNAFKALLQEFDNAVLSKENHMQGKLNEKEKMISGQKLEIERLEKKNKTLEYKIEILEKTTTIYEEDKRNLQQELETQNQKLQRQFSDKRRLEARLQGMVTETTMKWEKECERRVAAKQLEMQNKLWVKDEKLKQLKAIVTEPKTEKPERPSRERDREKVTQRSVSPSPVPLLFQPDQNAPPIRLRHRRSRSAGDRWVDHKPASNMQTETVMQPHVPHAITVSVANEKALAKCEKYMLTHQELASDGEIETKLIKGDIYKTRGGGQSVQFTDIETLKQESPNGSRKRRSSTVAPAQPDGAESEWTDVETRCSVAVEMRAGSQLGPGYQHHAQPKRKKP
The experiment in a line: co-IP; GFP-Trap magnetic beads (GFP nanobodies); extracts of HeLa cells stably expressing MKLP1::GFP transfected with Flag::CHMP4C constructs, synchronized in telophase; 4°C; western blot for Flag and GFP. (In western blotting, separated proteins are transferred to a membrane and probed.)

For experiment [4], the target named is GST-tagged Aurora B (bacterially purified) (UniProt Q96GD4). The experiment is described as follows: pull-down; GST-tagged protein purified from E. coli on glutathione beads; in vitro translated [35S]methionine-labelled polypeptides; binding at 150 mM NaCl, washes 150 mM to 1 M NaCl; only the target purified.

B1: CHMP4C N-terminal basic half (aa 1–121), in vitro translated (domain or fragment, UniProt Q96CF2 1-121)
chain: MSKLGKFFKGGGSSKSRAAPSPQEALVRLRETEEMLGKKQEYLENRIQREIALAKKHGTQNKRAALQALKRKKRFEKQLTQIDGTLSTIEFQREALENSHTNTEVLRNMGFAAKAMKSVHE
modifications: [35S]methionine label
On to B1, for which the binding entry in experiment [1] and in experiment [2] was “binds” in each case.

B2: CHMP4C (purified recombinant, full-length), Q96CF2 1-233 (protein)
chain: MSKLGKFFKGGGSSKSRAAPSPQEALVRLRETEEMLGKKQEYLENRIQREIALAKKHGTQNKRAALQALKRKKRFEKQLTQIDGTLSTIEFQREALENSHTNTEVLRNMGFAAKAMKSVHENMDLNKIDDLMQEITEQQDIAQEISEAFSQRVGFGDDFDEDELMAELEELEQEELNKKMTNIRLPNVPSSSLPAQPNRKPGMSSTARRSRAASSQRAEEEDDDIKQLAAWAT
Take B2: the binding entry in experiment [3] is reported as “binds”.

B3: Flag::CHMP4C S210A (protein, UniProt Q96CF2 1-233)
chain: MSKLGKFFKGGGSSKSRAAPSPQEALVRLRETEEMLGKKQEYLENRIQREIALAKKHGTQNKRAALQALKRKKRFEKQLTQIDGTLSTIEFQREALENSHTNTEVLRNMGFAAKAMKSVHENMDLNKIDDLMQEITEQQDIAQEISEAFSQRVGFGDDFDEDELMAELEELEQEELNKKMTNIRLPNVPSSSLPAQPNRKPGMSSTARRARAASSQRAEEEDDDIKQLAAWAT
Regarding B3, the binding entry with MKLP1::GFP is “binds”.

B4: Flag::CHMP4C StripleA (S210A, S214A and S215A) (protein, UniProt Q96CF2 1-233)
chain: MSKLGKFFKGGGSSKSRAAPSPQEALVRLRETEEMLGKKQEYLENRIQREIALAKKHGTQNKRAALQALKRKKRFEKQLTQIDGTLSTIEFQREALENSHTNTEVLRNMGFAAKAMKSVHENMDLNKIDDLMQEITEQQDIAQEISEAFSQRVGFGDDFDEDELMAELEELEQEELNKKMTNIRLPNVPSSSLPAQPNRKPGMSSTARRARAAAAQRAEEEDDDIKQLAAWAT
As to B4, in the experiment with MKLP1::GFP, the binding result is “binds”.

B5: Flag::CHMP4C WT (protein, UniProt Q96CF2 1-233)
chain: MSKLGKFFKGGGSSKSRAAPSPQEALVRLRETEEMLGKKQEYLENRIQREIALAKKHGTQNKRAALQALKRKKRFEKQLTQIDGTLSTIEFQREALENSHTNTEVLRNMGFAAKAMKSVHENMDLNKIDDLMQEITEQQDIAQEISEAFSQRVGFGDDFDEDELMAELEELEQEELNKKMTNIRLPNVPSSSLPAQPNRKPGMSSTARRSRAASSQRAEEEDDDIKQLAAWAT
For B5, the binding entry with MKLP1::GFP was “binds”.

B6: in vitro translated CHMP4C (protein, UniProt Q96CF2 1-233)
chain: MSKLGKFFKGGGSSKSRAAPSPQEALVRLRETEEMLGKKQEYLENRIQREIALAKKHGTQNKRAALQALKRKKRFEKQLTQIDGTLSTIEFQREALENSHTNTEVLRNMGFAAKAMKSVHENMDLNKIDDLMQEITEQQDIAQEISEAFSQRVGFGDDFDEDELMAELEELEQEELNKKMTNIRLPNVPSSSLPAQPNRKPGMSSTARRSRAASSQRAEEEDDDIKQLAAWAT
As for B6, in experiment [4], the binding result was “binds”.
